Results are given in words; binding and its absence hold for the method and conditions named. Binding seen in cells or lysates may run through a third protein. Some binding calls cover weakened binding; strength is not graded here.

Amino acid sequences for entries named in this document (tags omitted). A change or cut given only in a name is not applied to a line headed by its entry.
UniProt P02730: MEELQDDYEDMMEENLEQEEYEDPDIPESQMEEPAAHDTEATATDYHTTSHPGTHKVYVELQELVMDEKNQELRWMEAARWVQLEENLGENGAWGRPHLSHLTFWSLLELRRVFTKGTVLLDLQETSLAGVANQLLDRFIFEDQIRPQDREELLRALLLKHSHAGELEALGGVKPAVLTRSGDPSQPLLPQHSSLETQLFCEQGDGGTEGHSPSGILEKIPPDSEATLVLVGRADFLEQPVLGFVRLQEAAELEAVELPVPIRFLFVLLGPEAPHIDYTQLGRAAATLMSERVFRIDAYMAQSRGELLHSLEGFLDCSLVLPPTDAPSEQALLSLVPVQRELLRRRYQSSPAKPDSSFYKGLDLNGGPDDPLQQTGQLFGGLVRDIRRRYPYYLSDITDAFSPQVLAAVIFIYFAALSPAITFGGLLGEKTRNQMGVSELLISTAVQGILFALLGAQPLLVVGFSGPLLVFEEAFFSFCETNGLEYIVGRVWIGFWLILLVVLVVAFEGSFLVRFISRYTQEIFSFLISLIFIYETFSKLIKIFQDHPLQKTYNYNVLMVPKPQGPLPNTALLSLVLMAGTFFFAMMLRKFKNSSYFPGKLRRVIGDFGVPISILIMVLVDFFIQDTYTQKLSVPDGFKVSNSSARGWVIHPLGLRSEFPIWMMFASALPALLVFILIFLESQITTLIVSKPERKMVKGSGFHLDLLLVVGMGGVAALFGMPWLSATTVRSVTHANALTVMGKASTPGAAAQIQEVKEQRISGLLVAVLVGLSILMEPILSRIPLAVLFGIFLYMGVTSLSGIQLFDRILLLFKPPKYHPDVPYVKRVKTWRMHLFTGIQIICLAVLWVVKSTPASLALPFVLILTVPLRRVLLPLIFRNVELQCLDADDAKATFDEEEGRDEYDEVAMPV
UniProt Q8I0U8: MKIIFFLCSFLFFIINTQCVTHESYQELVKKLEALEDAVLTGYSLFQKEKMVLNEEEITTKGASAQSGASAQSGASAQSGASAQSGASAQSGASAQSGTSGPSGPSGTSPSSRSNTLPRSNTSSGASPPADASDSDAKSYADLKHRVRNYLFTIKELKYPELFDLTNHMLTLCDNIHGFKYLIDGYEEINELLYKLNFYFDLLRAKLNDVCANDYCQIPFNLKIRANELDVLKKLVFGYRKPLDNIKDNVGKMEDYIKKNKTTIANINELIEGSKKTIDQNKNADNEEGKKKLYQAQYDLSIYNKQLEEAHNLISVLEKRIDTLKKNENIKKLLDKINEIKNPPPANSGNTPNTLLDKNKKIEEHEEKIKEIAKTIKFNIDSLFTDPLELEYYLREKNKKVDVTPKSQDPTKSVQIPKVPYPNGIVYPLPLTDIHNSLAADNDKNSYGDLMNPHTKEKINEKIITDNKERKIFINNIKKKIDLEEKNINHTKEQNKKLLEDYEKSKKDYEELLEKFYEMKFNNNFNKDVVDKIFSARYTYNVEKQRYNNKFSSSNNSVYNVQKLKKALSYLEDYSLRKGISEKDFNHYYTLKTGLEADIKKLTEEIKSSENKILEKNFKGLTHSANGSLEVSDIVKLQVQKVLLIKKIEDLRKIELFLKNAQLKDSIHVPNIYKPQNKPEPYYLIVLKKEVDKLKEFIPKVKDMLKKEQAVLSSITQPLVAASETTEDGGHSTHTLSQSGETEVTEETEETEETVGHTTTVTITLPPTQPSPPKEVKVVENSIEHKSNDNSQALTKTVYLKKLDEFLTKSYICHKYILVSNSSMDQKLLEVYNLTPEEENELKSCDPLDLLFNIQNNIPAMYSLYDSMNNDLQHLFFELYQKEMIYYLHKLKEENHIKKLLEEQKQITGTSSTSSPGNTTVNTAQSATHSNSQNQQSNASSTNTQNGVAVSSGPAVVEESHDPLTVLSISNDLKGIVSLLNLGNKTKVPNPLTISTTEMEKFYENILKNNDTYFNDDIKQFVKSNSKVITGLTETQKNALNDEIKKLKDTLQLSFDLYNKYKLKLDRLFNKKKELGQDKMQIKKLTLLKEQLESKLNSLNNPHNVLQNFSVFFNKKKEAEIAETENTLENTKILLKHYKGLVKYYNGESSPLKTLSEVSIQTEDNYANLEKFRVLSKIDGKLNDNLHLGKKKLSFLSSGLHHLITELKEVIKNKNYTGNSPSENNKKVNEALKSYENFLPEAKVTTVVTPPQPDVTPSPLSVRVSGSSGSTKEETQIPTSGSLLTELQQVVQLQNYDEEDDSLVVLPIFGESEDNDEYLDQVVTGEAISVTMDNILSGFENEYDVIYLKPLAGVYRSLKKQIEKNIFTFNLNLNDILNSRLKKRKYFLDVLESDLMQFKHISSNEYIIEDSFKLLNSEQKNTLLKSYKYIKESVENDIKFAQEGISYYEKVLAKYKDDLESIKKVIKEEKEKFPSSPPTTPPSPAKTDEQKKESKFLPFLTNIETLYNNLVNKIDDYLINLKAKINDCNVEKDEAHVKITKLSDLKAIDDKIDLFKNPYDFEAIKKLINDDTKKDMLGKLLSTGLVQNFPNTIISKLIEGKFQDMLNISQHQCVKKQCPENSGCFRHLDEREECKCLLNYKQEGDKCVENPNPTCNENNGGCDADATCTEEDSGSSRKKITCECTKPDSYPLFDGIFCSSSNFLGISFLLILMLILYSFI

Assay [1] concerns the target GST-5ABC (recombinant human Band 3 amino acid 720-761 as GST fusion protein) (human) (UniProt P02730). Description: pull-down of radiolabeled parasite extract on GST-5ABC beads, autoradiography.
For assay [2] the target is unchanged. Description: pull-down of radiolabeled parasite extract on GST-5ABC beads against GST beads.
Assay [3] shares this target. Put plainly: pull-down of radiolabeled parasite extract on GST-5ABC beads.

Take “native P. falciparum (3D7) MSP1, full length, metabolically radiolabeled (from UniProt Q8I0U8 20-1699) (ligand)”: the binding result in assay [1] and in assay [2] was “binds” in each case.

As for “native P. falciparum (3D7) MSP142, metabolically radiolabeled (from UniProt Q8I0U8 1327-1699) (ligand)”, the binding entry in assay [3], in assay [1] and in assay [2] was “binds” throughout.

The values above are taken from patent US20030059436A1, “Band 3 antigenic peptides, malaria polypeptides and uses thereof” (priority 2001, published 2003).
